Data taken from publication PMC7419509.
Results are given in words; binding and its absence hold for the method and conditions named. Binding seen in cells or lysates may run through a third protein. Some entries that bind do so weakly or less than the wild type.

Chains of the proteins cited; added tags and fusions are not shown.
UniProt Q6R327: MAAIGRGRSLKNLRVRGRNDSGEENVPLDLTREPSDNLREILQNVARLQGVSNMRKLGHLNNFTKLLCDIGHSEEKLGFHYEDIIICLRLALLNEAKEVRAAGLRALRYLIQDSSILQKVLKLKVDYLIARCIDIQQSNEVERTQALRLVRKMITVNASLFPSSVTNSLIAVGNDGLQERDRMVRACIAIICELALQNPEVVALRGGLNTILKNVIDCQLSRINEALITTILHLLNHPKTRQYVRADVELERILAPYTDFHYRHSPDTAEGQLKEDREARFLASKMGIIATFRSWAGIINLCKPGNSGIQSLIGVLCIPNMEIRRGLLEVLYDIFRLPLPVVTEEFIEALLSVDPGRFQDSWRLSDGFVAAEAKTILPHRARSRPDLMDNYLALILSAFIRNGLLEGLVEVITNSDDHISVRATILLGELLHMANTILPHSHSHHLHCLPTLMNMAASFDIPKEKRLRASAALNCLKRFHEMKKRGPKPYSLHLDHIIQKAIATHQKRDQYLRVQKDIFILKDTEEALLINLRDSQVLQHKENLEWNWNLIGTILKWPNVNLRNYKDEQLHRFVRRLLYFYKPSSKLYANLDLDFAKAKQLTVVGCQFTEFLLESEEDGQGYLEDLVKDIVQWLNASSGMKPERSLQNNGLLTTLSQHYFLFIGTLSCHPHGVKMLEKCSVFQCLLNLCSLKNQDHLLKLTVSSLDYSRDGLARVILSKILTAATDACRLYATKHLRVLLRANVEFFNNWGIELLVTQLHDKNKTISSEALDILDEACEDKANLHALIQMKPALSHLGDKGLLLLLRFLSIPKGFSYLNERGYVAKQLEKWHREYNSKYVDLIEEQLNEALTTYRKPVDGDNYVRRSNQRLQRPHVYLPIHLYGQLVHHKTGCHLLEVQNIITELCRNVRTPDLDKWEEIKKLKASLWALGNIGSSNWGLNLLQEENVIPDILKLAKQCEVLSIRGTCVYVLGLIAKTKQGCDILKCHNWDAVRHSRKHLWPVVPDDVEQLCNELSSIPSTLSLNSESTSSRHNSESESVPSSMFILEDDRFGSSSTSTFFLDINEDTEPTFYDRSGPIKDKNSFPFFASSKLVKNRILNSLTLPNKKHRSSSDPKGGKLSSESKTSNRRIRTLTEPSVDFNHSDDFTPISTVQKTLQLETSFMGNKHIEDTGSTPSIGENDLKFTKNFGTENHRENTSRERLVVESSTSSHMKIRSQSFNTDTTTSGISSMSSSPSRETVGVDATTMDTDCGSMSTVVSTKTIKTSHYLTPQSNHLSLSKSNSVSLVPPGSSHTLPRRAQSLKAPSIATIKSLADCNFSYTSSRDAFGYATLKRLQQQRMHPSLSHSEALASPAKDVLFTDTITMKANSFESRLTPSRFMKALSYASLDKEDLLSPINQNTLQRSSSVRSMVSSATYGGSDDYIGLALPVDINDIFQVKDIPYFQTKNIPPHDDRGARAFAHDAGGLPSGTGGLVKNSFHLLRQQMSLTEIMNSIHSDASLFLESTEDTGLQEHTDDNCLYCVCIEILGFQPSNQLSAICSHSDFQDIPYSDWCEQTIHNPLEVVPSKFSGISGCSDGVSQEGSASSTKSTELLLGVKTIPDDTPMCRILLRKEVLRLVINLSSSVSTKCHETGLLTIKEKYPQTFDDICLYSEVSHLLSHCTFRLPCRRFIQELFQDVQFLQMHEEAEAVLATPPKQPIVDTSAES

Key:
[1] = target: RICTOR (human (endogenous in HT1080 and HeLa)) (UniProt Q6R327); test: co-IP; anti-RICTOR immunoprecipitates of HT1080 cells transiently transfected with TMBIM6 and TMBIM6 mutant constructs, immunoblot
[2] = target: RICTOR (human (endogenous in HT1080 and HeLa)) (UniProt Q6R327); test: SEC + co-IP; lysate of TMBIM6 KO HT1080 cells transiently overexpressing TMBIM6-HA in CHAPS buffer (25 mM HEPES pH 7.4, 150 mM NaCl, 1 mM EDTA, 0.3% CHAPS) on Superdex 200 Increase 10/300 GL; pooled fractions immunoprecipitated with anti-RICTOR antibody
[3] = target: RICTOR (human (endogenous in HT1080 and HeLa)) (UniProt Q6R327); test: poly(A) mRNA pull-down with oligo(dT) cellulose; mRNA-bound ribosomes purified from cell lysate (50 mM Tris-HCl pH 7.4, 100 mM NaCl, 30 mM MgCl2, 0.3% CHAPS, cycloheximide) with oligo(dT) cellulose, 1 h at RT; immunoblot

“TMBIM6-ΔN (from UniProt P55061 30-237) (domain or fragment)” was tested, and the binding [1] was “binds”.

In the case of “TMBIM6-HA (human influenza hemagglutinin (HA)-tagged TMBIM6) (from UniProt P55061 1-237)”, the binding [1] was “binds” and the binding [2] was “binds”.

In the case of TMBIM6 (from UniProt P55061 1-237), the binding [3] was “binds”.
